The record followed here is article PMC10916291, “Cocrystals of a coumarin derivative: an efficient approach towards anti-leishmanial cocrystals against MIL-resistant Leishmania tropica” (IUCrJ, 2024).

In this data set the test system is 3T3 (normal mouse fibroblast) cell line. The settings on record: MTT, 48 h, 1-30 µM. The protocol:
In vitro biological activities of CU, coformers and synthesized cocrystals 2–6 were evaluated for their MIL-resistant L. tropica promastigotes and cytotoxicity against […]. Detailed methodologies of the biological assays are provided in the supporting information.
2. Cytotoxicity assay Protocol:
Cy totoxicity o f compounds was evaluated in 96-well flat-bo ttomed micro plates by using the standard MTT (3-[4, 5-dimethylthiazole-2-y l]-2 , 5-d iph eny l-tetrazolium bromide) colorimetric assay. For this purpose, 3T3 (mouse fibroblast) cells were cultured in Dulb ecco’s Modified Eagle Medium, supplemented with 5% of fetal bovine serum (FBS), 100 IU/mL of penicillin and 100 µg / m L of strep tomy cin in 75 cm2 flasks, and kept in 5% CO2 incubator at 37° C.
Exponentially growing cells were harvested, counted with haemocytometer, and diluted with a particular medium. Cell culture with the concentration of 5x10^4 cells/mL was p rep ared and introduced (100 µL/well) into 96-well plates. […]
Subsequently, 100 µL of DMSO was added to each well. The extent of MTT reduction to formazan within cells was calculated by measuring the absorbance at 540 nm, using a micro-plate reader (Spectra Max p lus, Molecular Devices, USA). […] The percent inhibition was calculated by using the fo llo wing formula: […]

For `Cc1cccc(N)n1` [Cocrystal 1d, 2-amino-6-methylpyridine], the “Cytotoxic activity 3T3 cell line (IC50 = µM ± SEM)” value is listed as “Non-cytotoxic”.
